This is an account of results in paper PMC9986248.

By UniProt entry, the sequences of proteins in these tests, tags left out. Where a name states a change or a piece, a line headed by the entry shows the natural chain unless it says otherwise. Residues count along the entry.
UniProt Q96P20: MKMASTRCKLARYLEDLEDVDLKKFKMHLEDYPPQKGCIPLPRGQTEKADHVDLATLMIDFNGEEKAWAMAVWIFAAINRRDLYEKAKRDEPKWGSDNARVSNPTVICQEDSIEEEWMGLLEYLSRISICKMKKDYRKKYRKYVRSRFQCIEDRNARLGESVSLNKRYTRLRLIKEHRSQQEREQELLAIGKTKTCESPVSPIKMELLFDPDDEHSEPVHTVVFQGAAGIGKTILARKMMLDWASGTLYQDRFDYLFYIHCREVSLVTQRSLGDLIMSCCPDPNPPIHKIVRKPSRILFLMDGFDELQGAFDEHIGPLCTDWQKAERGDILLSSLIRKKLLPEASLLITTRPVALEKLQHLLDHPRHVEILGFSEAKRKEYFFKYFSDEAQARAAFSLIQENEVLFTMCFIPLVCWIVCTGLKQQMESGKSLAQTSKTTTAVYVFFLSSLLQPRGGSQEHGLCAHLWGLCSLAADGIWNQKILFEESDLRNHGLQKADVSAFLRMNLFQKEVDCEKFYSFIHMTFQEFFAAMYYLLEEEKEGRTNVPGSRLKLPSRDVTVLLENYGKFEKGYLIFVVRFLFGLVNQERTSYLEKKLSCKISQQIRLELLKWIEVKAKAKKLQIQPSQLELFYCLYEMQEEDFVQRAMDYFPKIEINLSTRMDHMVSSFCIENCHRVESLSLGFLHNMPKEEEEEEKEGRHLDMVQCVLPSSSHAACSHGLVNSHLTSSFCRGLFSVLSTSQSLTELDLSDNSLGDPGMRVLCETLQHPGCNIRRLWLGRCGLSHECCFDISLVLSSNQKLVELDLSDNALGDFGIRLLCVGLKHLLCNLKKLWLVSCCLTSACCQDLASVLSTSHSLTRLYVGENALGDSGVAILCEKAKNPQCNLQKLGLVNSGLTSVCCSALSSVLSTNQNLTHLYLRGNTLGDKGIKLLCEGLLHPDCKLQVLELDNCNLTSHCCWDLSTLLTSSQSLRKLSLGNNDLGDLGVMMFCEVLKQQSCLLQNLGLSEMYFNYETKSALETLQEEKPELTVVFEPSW
NLRP3 PYRIN (PYD) domain: residues 1-93 of Q96P20
NLRP3 NACHT domain: residues 220-536 of Q96P20
UniProt O00141: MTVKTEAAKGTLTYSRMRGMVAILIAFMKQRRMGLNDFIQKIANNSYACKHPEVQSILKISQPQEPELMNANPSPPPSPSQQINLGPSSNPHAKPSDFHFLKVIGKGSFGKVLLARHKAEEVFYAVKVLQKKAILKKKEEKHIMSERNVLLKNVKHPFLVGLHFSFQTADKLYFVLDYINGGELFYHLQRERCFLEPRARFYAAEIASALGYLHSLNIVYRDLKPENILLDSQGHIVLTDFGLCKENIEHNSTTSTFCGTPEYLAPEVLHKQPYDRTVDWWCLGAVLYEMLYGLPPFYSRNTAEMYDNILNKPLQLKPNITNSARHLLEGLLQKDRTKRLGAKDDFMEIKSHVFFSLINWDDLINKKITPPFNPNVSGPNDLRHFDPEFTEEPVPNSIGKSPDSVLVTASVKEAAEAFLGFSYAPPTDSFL

The target in one assay is GFP-NLRP3 (UniProt Q96P20). The assay is described as follows: co-IP; tagged proteins (GFP-NLRP3, FLAG-SGK1, MYC-ASC) transfected in HEK-293T cells stimulated with LPS (200 ng/mL, 3 h) and ATP (5 mM, 30 min); total lysates; NLRP3 with ASC in the absence and presence of FLAG-SGK1.
The next assay has as its target NLRP3 PYRIN (PYD) domain (UniProt Q96P20). The assay is described as follows: co-IP; domain mapping: HEK-293T cells transfected with plasmids for full-length SGK1 and one of the NLRP3 domains, 48 h, immunoblotting. (In general: A western blot detects proteins with antibodies after separation by electrophoresis.)
For a further assay, the target named is NLRP3 NACHT domain (UniProt Q96P20). Described as above.
In assay [1] the target is serum/glucocorticoid-inducible kinase 1 (endogenous, THP-1) (human (endogenous in THP-1)) (UniProt O00141). The assay is described as follows: co-IP; endogenous proteins in total lysates of THP-1 cells (saline, LPS 200 ng/mL 3 h, or LPS + ATP 5 mM 30 min; control or SGK1 siRNA for NLRP3 with ASC); 500 ug lysate with primary antibody 14 h at 4 °C, protein G Dynabeads; lysis buffer 50 mM Tris-HCl pH 7.4, 150 mM NaCl, 1 mM EDTA, 0.5% NP-40, 0.25% sodium deoxycholate.

Assay [2] deals with NLR family pyrin domain containing 3 (endogenous, THP-1) (human (endogenous in THP-1)) (UniProt Q96P20). The assay is described as above.
In a further assay the target is GST-fused NLRP3 (UniProt Q96P20). The assay is described as follows: pull-down; GST-fused NLRP3 on glutathione Sepharose 4B beads incubated with in vitro translated SGK1 (rabbit reticulocyte lysate), washed with binding buffer, SDS-PAGE; only the target purified.

No constants are given. Whether binding was seen depends on the method and setting. Binding seen in cells or lysates may run through a third protein. Some binding calls cover weakened binding; strength is not graded here.

With FLAG-SGK1 (from UniProt O00141 1-431), the binding entry in the assay with GFP-NLRP3 is “binds”; in the assay with NLRP3 PYRIN (PYD) domain, “binds”; in the assay with NLRP3 NACHT domain, “binds weakly”. For the substance “NLR family pyrin domain containing 3 (endogenous, THP-1) (from UniProt Q96P20 1-1036)”, the binding result in assay [1] is on record as “binds”. Consider “serum/glucocorticoid-inducible kinase 1 (endogenous, THP-1) (from UniProt O00141 1-431)”, for which the binding entry in assay [2] was “binds”.

Take “in vitro translated SGK1 (from UniProt O00141 1-431)”: the binding entry in the assay with GST-fused NLRP3 is “binds”.
